Results reported in US11072575B1, “Method of preparing a cinnamyl alcohol retinoic acid ester with antioxidant and antibacterial activities” (priority 2020, dated 2021).
For at least one compound, name, drawing or mass did not settle the structure.

Assays:
[1] = test system: Multi-resistant Pseudomonas aeruginosa 18-202; assay: Paper diffusion drug sensitivity test, multi-resistant Pseudomonas aeruginosa 18-202; conditions: summary of Table 4
[2] = DPPH radical scavenging activity assay; conditions: 30 min, 517 nm, n = 3
Text: In the DPPH molecule, due to the presence of multiple electron-withdrawing —NO2 and large π bonds of the benzene ring, nitrogen free radical is stabilized. Its methanol solution is purple and has a maximum absorption peak at 517 nm. After the addition of an antioxidant, DPPH captures an electron to be paired with the free electron, and the purple fades and turns into a yellow substance. The absorption at 517 nm disappears, and the degree of fading is quantitatively related to the number of electrons it captures. Based on this principle, a spectrophotometer is used to detect the change of the absorbance of the DPPH radical and the sample solution, and the ability of the sample to provide hydrogen atoms and scavenge free radicals can be measured. […] Vc (positive control), cinnamyl alcohol retinoic acid ester (sample), cinnamyl alcohol (control) and retinoic acid (control). The sample solution was subjected to gradient dilution with toluene, and three sets of controls were separately dissolved in a test tube with a certain amount of toluene to prepare the same concentration gradient as the sample. [table] […] Clearance calculation: Clearance Rate (%)=[1−(Ai−Aj)/Ao]*100%

[3] = test system: Multi-resistant Staphylococcus aureus 18-596; assay: Paper diffusion drug sensitivity test, multi-resistant Staphylococcus aureus 18-596; conditions: summary of Table 4

CC1=C(/C=C/C(C)=C/C=C/C(C)=C/C(=O)O)C(C)(C)CCC1 [Retinoic acid, retinoic acid]
Antibacterial effect (in words) [1]: little inhibitory effect | DPPH clearance rate ([2]; 1.76 ppm in toluene): 7.05% | DPPH clearance rate ([2]; 8.80 ppm in toluene): 8.99% | DPPH clearance rate ([2]; 21.12 ppm in toluene): 15.23% | DPPH clearance rate ([2]; 42.24 ppm in toluene): 20.54% | DPPH clearance rate ([2]; 79.20 ppm in toluene): 31.87% | DPPH clearance rate ([2]; 112.64 ppm in toluene): 42.96% | DPPH clearance rate ([2]; 281.60 ppm in toluene): 57.84% | DPPH clearance rate ([2]; 492.80 ppm in toluene): 61.59% | DPPH clearance rate ([2]; 792.00 ppm in toluene): 72.52% | DPPH clearance rate ([2]; 915.20 ppm in toluene): 74.61% | Antibacterial effect (in words) [3]: little inhibitory effect
